Experimental data published in the supplement of paper PMC10849652.
The other results are listed elsewhere or left out.

Amino acid sequences for entries named in this document (tags omitted). A change or cut given only in a name is not applied to a line headed by its entry.
UniProt O43678, whole entry, looked up: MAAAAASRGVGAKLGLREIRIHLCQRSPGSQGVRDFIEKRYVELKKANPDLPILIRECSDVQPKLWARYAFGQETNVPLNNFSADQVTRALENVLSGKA
UniProt Q330K2: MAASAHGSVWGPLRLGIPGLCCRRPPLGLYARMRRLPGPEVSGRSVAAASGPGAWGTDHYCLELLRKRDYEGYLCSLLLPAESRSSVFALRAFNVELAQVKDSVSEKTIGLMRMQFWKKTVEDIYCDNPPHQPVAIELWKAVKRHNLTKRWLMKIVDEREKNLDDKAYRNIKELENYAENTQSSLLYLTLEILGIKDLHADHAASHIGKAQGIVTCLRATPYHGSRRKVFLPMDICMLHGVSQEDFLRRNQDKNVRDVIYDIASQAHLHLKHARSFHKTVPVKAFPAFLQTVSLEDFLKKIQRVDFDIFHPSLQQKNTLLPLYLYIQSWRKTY
UniProt P19404, whole entry, looked up: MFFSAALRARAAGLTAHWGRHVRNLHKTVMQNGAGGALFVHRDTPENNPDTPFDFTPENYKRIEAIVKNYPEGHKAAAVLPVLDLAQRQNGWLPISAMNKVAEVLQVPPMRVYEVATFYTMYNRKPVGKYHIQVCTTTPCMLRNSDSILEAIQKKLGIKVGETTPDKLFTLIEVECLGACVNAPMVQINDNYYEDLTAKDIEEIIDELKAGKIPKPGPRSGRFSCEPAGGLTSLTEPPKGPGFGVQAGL
UniProt P43490: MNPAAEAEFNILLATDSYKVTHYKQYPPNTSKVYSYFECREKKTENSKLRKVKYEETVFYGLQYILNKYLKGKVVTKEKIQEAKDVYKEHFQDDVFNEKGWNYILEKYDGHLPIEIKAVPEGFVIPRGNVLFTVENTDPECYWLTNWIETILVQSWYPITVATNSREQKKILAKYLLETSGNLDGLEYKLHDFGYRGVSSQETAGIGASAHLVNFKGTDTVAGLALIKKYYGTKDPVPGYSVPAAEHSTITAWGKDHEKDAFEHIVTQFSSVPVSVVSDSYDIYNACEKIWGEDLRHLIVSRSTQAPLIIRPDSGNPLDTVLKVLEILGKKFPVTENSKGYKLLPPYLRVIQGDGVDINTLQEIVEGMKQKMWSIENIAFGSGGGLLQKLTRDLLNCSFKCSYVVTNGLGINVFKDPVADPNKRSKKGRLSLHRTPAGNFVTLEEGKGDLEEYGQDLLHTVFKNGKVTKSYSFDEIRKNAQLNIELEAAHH
UniProt Q16718, whole entry, looked up: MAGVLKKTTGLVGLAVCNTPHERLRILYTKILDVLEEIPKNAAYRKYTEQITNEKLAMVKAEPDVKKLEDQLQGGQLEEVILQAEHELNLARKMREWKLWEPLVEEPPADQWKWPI
UniProt Q13459: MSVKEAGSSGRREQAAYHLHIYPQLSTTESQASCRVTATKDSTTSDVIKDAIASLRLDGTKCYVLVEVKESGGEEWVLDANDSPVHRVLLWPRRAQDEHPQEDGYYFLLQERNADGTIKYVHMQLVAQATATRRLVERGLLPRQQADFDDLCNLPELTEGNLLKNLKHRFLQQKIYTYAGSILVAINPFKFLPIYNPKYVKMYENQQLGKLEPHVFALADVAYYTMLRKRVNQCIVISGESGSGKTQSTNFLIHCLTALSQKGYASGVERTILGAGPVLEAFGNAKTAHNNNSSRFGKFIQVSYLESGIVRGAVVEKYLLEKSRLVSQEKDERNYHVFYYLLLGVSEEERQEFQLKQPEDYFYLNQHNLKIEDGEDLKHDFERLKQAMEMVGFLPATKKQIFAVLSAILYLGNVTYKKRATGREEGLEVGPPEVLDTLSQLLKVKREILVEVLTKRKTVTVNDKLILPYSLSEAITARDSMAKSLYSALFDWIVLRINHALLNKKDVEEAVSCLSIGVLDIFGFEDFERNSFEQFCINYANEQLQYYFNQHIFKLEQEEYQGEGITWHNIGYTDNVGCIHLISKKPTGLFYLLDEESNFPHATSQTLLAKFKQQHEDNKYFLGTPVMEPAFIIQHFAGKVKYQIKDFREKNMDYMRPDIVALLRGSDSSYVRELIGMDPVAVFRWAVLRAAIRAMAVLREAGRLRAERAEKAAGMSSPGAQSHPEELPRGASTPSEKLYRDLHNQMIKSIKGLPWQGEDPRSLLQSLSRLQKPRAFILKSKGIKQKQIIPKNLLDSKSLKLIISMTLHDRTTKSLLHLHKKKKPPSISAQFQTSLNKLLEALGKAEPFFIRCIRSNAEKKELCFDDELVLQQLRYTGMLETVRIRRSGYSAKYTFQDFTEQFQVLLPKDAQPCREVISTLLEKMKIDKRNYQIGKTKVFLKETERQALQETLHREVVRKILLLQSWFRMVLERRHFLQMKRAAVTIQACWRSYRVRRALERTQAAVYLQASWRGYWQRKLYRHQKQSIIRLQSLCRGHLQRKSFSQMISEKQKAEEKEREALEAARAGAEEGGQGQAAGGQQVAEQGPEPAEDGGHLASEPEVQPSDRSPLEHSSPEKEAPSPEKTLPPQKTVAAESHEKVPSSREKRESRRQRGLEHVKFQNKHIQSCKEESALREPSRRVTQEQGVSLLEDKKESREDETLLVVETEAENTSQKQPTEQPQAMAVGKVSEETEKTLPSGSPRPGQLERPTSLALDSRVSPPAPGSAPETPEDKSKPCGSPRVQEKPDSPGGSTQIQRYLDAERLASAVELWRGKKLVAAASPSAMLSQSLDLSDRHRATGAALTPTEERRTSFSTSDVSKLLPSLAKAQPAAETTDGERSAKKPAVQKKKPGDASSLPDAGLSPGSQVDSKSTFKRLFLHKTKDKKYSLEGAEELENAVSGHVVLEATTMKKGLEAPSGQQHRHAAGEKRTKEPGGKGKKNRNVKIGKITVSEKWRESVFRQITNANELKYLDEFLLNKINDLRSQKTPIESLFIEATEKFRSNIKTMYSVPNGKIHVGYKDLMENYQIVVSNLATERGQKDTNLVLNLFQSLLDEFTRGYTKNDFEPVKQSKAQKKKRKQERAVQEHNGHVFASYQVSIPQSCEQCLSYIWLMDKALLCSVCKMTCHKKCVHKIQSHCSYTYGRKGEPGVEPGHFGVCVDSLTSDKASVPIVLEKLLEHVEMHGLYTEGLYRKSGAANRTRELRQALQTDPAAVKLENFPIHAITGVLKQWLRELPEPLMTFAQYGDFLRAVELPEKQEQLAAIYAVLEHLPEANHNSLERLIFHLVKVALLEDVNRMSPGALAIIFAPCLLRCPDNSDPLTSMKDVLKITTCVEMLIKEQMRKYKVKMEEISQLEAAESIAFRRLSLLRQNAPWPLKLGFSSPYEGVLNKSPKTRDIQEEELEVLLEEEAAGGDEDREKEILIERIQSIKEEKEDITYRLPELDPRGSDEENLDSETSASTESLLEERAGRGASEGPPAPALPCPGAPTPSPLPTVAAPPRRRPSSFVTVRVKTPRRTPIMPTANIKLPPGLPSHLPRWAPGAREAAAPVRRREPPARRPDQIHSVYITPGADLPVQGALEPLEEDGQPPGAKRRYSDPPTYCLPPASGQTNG
UniProt Q9UI09, whole entry, looked up: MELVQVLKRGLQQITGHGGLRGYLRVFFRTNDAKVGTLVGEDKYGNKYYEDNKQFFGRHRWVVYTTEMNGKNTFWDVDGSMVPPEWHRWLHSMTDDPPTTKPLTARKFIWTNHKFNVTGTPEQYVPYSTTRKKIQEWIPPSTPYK
UniProt Q8NEY1: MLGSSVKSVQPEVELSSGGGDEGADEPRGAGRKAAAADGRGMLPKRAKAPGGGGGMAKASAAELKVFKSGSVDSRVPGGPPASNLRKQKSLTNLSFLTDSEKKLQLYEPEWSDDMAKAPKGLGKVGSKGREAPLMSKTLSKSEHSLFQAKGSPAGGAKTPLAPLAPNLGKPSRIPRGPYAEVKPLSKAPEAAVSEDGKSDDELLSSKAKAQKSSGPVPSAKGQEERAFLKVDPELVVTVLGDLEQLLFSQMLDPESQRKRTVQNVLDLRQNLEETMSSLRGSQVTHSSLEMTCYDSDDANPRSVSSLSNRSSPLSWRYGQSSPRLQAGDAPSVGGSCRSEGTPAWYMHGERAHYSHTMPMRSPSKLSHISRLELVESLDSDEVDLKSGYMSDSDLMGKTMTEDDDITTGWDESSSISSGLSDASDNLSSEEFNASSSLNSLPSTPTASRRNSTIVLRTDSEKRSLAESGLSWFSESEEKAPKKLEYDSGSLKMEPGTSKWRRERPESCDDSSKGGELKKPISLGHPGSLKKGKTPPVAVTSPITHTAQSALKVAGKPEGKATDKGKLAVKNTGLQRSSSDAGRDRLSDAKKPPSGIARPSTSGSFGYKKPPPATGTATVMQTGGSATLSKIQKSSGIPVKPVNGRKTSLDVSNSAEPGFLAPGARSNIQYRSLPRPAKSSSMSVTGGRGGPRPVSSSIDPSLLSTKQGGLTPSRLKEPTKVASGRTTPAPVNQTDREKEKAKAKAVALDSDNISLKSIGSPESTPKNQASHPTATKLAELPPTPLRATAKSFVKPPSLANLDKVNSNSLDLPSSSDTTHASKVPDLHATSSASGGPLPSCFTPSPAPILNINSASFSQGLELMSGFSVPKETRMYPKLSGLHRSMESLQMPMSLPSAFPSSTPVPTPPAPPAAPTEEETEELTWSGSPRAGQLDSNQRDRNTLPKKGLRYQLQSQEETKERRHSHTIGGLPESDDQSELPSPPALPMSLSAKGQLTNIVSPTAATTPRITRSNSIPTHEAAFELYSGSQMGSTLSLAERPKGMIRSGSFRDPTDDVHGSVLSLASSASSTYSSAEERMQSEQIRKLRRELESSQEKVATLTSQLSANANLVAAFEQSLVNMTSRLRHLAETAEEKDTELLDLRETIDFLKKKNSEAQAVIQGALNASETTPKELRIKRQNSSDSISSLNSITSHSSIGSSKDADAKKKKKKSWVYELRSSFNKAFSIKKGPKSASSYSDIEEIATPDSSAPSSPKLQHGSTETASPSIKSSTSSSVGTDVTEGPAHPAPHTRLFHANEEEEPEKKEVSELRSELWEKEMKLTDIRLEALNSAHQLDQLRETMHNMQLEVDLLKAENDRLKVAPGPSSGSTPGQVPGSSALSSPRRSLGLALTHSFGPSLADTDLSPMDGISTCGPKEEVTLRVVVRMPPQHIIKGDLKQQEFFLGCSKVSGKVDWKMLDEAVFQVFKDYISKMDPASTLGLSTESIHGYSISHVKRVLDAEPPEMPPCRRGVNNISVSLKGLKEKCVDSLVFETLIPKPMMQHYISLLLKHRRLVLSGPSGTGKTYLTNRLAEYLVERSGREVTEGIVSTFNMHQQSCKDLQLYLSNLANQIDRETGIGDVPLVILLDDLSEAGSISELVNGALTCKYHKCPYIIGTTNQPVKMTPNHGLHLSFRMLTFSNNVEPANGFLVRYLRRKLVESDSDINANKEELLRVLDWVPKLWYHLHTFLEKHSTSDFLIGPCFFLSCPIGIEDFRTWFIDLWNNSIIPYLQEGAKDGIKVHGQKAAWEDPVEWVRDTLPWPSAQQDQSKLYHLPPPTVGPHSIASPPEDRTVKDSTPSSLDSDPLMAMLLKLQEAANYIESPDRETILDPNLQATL
UniProt Q9H0A0: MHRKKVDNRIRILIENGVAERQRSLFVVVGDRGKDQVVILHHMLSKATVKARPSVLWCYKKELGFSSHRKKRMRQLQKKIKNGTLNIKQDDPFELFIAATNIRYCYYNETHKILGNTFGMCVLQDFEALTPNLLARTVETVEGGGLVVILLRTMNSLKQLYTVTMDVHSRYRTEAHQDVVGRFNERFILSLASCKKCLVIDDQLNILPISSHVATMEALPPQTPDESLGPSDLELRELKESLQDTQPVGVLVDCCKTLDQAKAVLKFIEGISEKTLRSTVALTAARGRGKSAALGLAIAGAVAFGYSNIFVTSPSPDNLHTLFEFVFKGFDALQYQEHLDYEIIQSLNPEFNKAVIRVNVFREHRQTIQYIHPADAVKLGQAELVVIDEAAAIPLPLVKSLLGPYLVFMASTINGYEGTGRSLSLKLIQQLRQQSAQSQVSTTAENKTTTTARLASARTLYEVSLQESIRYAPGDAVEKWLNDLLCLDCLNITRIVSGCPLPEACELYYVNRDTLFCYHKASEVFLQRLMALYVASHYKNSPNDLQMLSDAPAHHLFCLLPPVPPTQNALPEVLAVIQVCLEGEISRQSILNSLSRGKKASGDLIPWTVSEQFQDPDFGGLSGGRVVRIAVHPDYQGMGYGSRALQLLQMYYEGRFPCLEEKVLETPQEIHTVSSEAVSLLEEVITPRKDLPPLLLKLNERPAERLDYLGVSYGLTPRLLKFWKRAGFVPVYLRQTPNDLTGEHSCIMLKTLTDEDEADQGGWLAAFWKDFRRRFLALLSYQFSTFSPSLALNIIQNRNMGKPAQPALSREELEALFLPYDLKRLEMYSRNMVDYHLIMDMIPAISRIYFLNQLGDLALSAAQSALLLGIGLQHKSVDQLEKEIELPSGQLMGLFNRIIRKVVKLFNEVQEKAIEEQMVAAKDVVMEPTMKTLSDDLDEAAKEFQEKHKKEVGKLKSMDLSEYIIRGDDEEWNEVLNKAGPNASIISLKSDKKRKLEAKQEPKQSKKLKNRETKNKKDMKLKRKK
UniProt O95167, whole entry, looked up: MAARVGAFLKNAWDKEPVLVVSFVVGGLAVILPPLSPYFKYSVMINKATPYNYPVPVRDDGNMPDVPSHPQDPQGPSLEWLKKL

Tests used:
Assay in all cases: log2 fold change, soluble protein after heating vs DMSO (PISA); higher = thermal stabilisation; K562 cells, 10 uM, 30 min; active = over 0.2 and 3.5 SD of the protein, either way, in both replicates (recomputed)
saracatinib = compound: CN1CCN(CCOc2cc(OC3CCOCC3)c3c(Nc4c(Cl)ccc5c4OCO5)ncnc3c2)CC1 [saracatinib]
Procedure, shortened: (§1)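 Quantification of soluble protein used TMTpro 16plex LC-MS/MS, with channel sums equalised. Samples were the supernatant after 21,000xg for 90 min of pooled aliquots from K562 cells (2×10^6 cells/mL) treated with 10 μM compound for 30 min, heated for 3 min over 48°C-58°C, and extracted in PBS with 0.5% NP-40 at 4°C. Values, from duplicates, describe thermal stability against control samples on a log2 fold-change scale.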

sotrastaurin = compound: CN1CCN(c2nc(C3=C(c4c[nH]c5ccccc45)C(=O)NC3=O)c3ccccc3n2)CC1 [sotrastaurin]
Procedure, shortened: as §1

alvocidib = compound: CN1CC[C@H](c2c(O)cc(O)c3c(=O)cc(-c4ccccc4Cl)oc23)[C@H](O)C1 [alvocidib]
Procedure, shortened: as §1

Tubastatin A = compound: CN1CCc2c(c3ccccc3n2Cc2ccc(C(=O)NO)cc2)C1 [Tubastatin A]
Procedure, shortened: as §1

[1] = compound: CNC(=O)C1=CC=CC=C1NC2=NC(=NC=C2Cl)NC3=C(C=C(C=C3)N4CCOCC4)OC
Procedure, shortened: as §1

defactinib = compound: CNC(=O)c1ccc(Nc2ncc(C(F)(F)F)c(NCc3nccnc3N(C)S(C)(=O)=O)n2)cc1 [defactinib]
Procedure, shortened: as §1

rucaparib = compound: CNCc1ccc(-c2[nH]c3cc(F)cc4c3c2CCNC4=O)cc1 [rucaparib]
Procedure, shortened: as §1

[2] = compound: CNc1nc(-c2ccc3c(N)n[nH]c3c2)cc(N2C[C@@H](C(=O)NC3CCCCC3)CC[C@H]2C)n1
Procedure, shortened: as §1

encorafenib = compound: COC(=O)N[C@@H](C)CNc1nccc(-c2cn(C(C)C)nc2-c2cc(Cl)cc(NS(C)(=O)=O)c2F)n1 [encorafenib]
Procedure, shortened: as §1

[3] = compound: COC(=O)[C@H](CCSC)NC(=O)C1=C(C=C(C=C1)NC[C@H](CS)N)C2=CC=CC=C2
Procedure, shortened: as §1

[4] = compound: COC1=CC=C(C=C1)CN2C=CC3=C2C=C(C=C3)C(=O)NO
Procedure, shortened: as §1

filanesib = compound: CON(C)C(=O)N1N=C(c2cc(F)ccc2F)S[C@@]1(CCCN)c1ccccc1 [filanesib]
Procedure, shortened: as §1

zotarolimus = compound: CO[C@H]1C[C@@H]2CC[C@@H](C)[C@@](O)(O2)C(=O)C(=O)N2CCCC[C@H]2C(=O)O[C@H]([C@H](C)C[C@@H]2CC[C@H](n3cnnn3)[C@H](OC)C2)CC(=O)[C@H](C)/C=C(\C)[C@@H](O)[C@@H](OC)C(=O)[C@H](C)C[C@H](C)/C=C/C=C/C=C/1C [zotarolimus]
Procedure, shortened: as §1

idasanutlin = compound: COc1cc(C(=O)O)ccc1NC(=O)[C@@H]1N[C@@H](CC(C)(C)C)[C@](C#N)(c2ccc(Cl)cc2F)[C@H]1c1cccc(Cl)c1F [idasanutlin]
Procedure, shortened: as §1

alisertib = compound: COc1cc(Nc2ncc3c(n2)-c2ccc(Cl)cc2C(c2c(F)cccc2OC)=NC3)ccc1C(=O)O [alisertib]
Procedure, shortened: as §1

[5] = compound: COc1cc2nc(-c3cc(F)ccc3O)nc(N[C@@H]3CNC[C@H]3C(C)(C)O)c2cc1OC
Procedure, shortened: as §1

gefitinib = compound: COc1cc2ncnc(Nc3ccc(F)c(Cl)c3)c2cc1OCCCN1CCOCC1 [gefitinib]
Procedure, shortened: as §1

[6] = compound: COc1cccc2cc(-c3nc([C@H]4CC[C@H](C(=O)O)CC4)n4ncnc(N)c34)[nH]c12
Procedure, shortened: as §1

lapatinib = compound: CS(=O)(=O)CCNCc1ccc(-c2ccc3ncnc(Nc4ccc(OCc5cccc(F)c5)c(Cl)c4)c3c2)o1 [lapatinib]
Procedure, shortened: as §1

pictilisib = compound: CS(=O)(=O)N1CCN(Cc2cc3nc(-c4cccc5[nH]ncc45)nc(N4CCOCC4)c3s2)CC1 [pictilisib]
Procedure, shortened: as §1

Measured: log2 fold change

NDUFA2 (UniProt O43678)
inactive: saracatinib -0.014 | sotrastaurin 0.005 | alvocidib -0.041 | Tubastatin A -0.006 | [1] 0.006 | defactinib -0.034 | rucaparib 0.012 | [2] 0.09 | encorafenib -0.058 | [3] -0.048 | [4] -0.076 | filanesib -0.015 | zotarolimus 0.081 | idasanutlin -0.177 | alisertib -0.064 | [5] 0.043 | gefitinib -0.018 | [6] -0.038 | lapatinib 0.001 | pictilisib -0.102

NCOR1 (UniProt O75376)
inactive: saracatinib 0.074 | sotrastaurin -0.094 | Tubastatin A -0.009 | [1] -0.041 | defactinib -0.113 | rucaparib 0.012 | [2] -0.02 | encorafenib 0 | [3] 0.007 | [4] -0.07 | filanesib 0.078 | zotarolimus 0.069 | idasanutlin 0.004 | alisertib -0.086 | [5] 0.128 | gefitinib -0.018 | [6] 0.064 | lapatinib -0.119 | pictilisib 0.135

NDUFAF6 (UniProt Q330K2)
inactive: saracatinib -0.071 | sotrastaurin -0.112 | Tubastatin A -0.101 | [1] 0.038 | defactinib -0.04 | rucaparib -0.108 | [2] -0.146 | encorafenib 0.081 | [3] 0.084 | [4] 0.183 | filanesib -0.177 | zotarolimus -0.006 | idasanutlin 0.03 | alisertib -0.199 | [5] -0.165 | gefitinib -0.018 | [6] 0.061 | lapatinib -0.007 | pictilisib 0

NDUFV2 (UniProt P19404)
inactive: saracatinib 0.046 | sotrastaurin -0.014 | alvocidib -0.016 | Tubastatin A -0.01 | [1] -0.023 | defactinib 0.019 | rucaparib 0.004 | [2] -0.044 | encorafenib -0.079 | [3] 0.046 | [4] -0.033 | filanesib -0.003 | zotarolimus 0.02 | idasanutlin 0.004 | alisertib 0.092 | [5] 0.031 | gefitinib -0.009 | [6] 0.029 | lapatinib -0.032 | pictilisib -0.031

NAMPT (UniProt P43490)
inactive: saracatinib 0.021 | sotrastaurin 0.076 | alvocidib 0.008 | Tubastatin A -0.035 | [1] -0.019 | defactinib 0.003 | rucaparib 0.028 | [2] -0.028 | encorafenib -0.009 | [3] 0.006 | [4] -0.076 | filanesib -0.043 | zotarolimus -0.018 | idasanutlin -0.023 | alisertib -0.039 | [5] 0.029 | gefitinib 0.025 | [6] 0.06 | lapatinib -0.04 | pictilisib 0.013

NCS1 (UniProt P62166)
inactive: saracatinib 0.083 | sotrastaurin 0.068 | alvocidib 0.059 | Tubastatin A 0.013 | [1] 0.006 | defactinib -0.034 | rucaparib -0.021 | [2] -0.025 | encorafenib 0 | [3] 0.017 | [4] 0.001 | filanesib -0.06 | zotarolimus 0.009 | idasanutlin -0.045 | alisertib -0.039 | [5] -0.011 | gefitinib -0.014 | [6] -0.002 | pictilisib 0.023

NDUFA5 (UniProt Q16718)
inactive: saracatinib -0.025 | sotrastaurin 0.042 | alvocidib -0.04 | Tubastatin A -0.019 | [1] -0.001 | defactinib -0.016 | rucaparib -0.023 | [2] -0.014 | encorafenib -0.028 | [3] -0.051 | [4] -0.116 | filanesib 0.029 | zotarolimus 0.056 | idasanutlin -0.005 | alisertib -0.041 | [5] -0.106 | gefitinib 0.039 | [6] 0.03 | lapatinib -0.029 | pictilisib -0.072

NAT14 (UniProt Q8WUY8)
inactive: saracatinib -0.054 | sotrastaurin 0.068 | Tubastatin A -0.02 | [1] 0 | defactinib -0.235 | rucaparib -0.002 | [2] -0.005 | encorafenib 0.002 | [3] 0.163 | [4] 0.151 | filanesib -0.001 | zotarolimus 0.107 | idasanutlin -0.041 | alisertib -0.013 | [5] -0.086 | gefitinib -0.016 | [6] 0.12 | lapatinib 0.081

MYO9B (UniProt Q13459)
inactive: saracatinib -0.082 | sotrastaurin -0.136 | alvocidib 0.048 | Tubastatin A 0.079 | [1] -0.034 | defactinib -0.003 | rucaparib 0.282 | [2] 0.054 | encorafenib 0.208 | [3] -0.015 | [4] -0.057 | filanesib 0.231 | zotarolimus -0.002 | idasanutlin 0.059 | alisertib 0.08 | [5] 0.061 | gefitinib 0.055 | [6] -0.099 | lapatinib -0.031 | pictilisib 0.036

NDUFA12 (UniProt Q9UI09)
inactive: saracatinib 0.029 | sotrastaurin -0.017 | Tubastatin A 0 | [1] -0.027 | defactinib -0.037 | rucaparib -0.061 | [2] 0.031 | encorafenib 0.05 | [3] -0.018 | [4] -0.011 | filanesib -0.071 | zotarolimus 0.002 | idasanutlin -0.213 | alisertib 0.019 | [5] -0.167 | gefitinib -0.086 | [6] 0.056 | lapatinib -0.04 | pictilisib 0.023

NAV1 (UniProt Q8NEY1)
inactive: saracatinib -0.464 | sotrastaurin 0.09 | alvocidib -0.08 | Tubastatin A 0.084 | [1] -0.199 | defactinib 0.006 | rucaparib 0.022 | [2] 0.149 | encorafenib 0.03 | [3] 0.076 | [4] -0.107 | filanesib 0.12 | zotarolimus 0.08 | idasanutlin 0.037 | alisertib 0.007 | [5] -0.329 | gefitinib 0.157 | [6] -0.177 | lapatinib 0.044 | pictilisib -0.004

NACC1 (UniProt Q96RE7)
inactive: saracatinib -0.055 | sotrastaurin -0.141 | Tubastatin A 0.034 | [1] -0.063 | defactinib -0.312 | rucaparib 0.01 | [2] -0.006 | encorafenib 0.13 | [3] -0.021 | [4] 0.009 | filanesib -0.116 | zotarolimus 0.103 | idasanutlin 0.02 | alisertib 0.016 | [5] -0.198 | gefitinib 0.021 | [6] 0.024 | lapatinib -0.031 | pictilisib -0.034

NCK2 (UniProt O43639)
inactive: saracatinib -0.056 | sotrastaurin 0 | alvocidib -0.043 | Tubastatin A 0.191 | defactinib -0.227 | rucaparib 0.125 | [2] 0.017 | encorafenib 0.055 | [3] -0.32 | [4] -0.062 | filanesib -0.089 | zotarolimus 0.052 | idasanutlin 0.04 | [5] 0.267 | gefitinib 0.084 | lapatinib -0.257 | pictilisib -0.046

NAT10 (UniProt Q9H0A0)
inactive: saracatinib -0.043 | sotrastaurin -0.031 | alvocidib 0.318 | Tubastatin A 0.094 | [1] -0.166 | defactinib 0.382 | rucaparib 0.346 | [2] 0.182 | encorafenib 0.14 | [3] -0.02 | [4] -0.049 | filanesib 0.503 | zotarolimus 0.091 | idasanutlin 0.25 | alisertib -0.098 | [5] 0.017 | gefitinib 0.015 | [6] -0.279 | lapatinib 0.145 | pictilisib -0.132

NDUFB10 (UniProt O96000)
inactive: saracatinib -0.027 | sotrastaurin 0.008 | Tubastatin A -0.022 | [1] -0.012 | defactinib -0.016 | rucaparib 0.012 | [2] -0.004 | encorafenib -0.005 | [3] -0.029 | [4] 0.044 | filanesib -0.025 | zotarolimus 0.006 | idasanutlin -0.035 | alisertib -0.021 | [5] -0.047 | gefitinib 0 | [6] 0.05 | lapatinib -0.035 | pictilisib 0.082

NDUFA3 (UniProt O95167)
inactive: saracatinib 0.026 | sotrastaurin 0.054 | alvocidib 0 | Tubastatin A 0.063 | [1] 0.041 | defactinib -0.023 | rucaparib -0.006 | [2] -0.017 | encorafenib -0.082 | [3] 0.158 | filanesib 0.017 | zotarolimus -0.07 | idasanutlin 0.061 | alisertib -0.069 | [5] -0.037 | gefitinib 0.05 | [6] 0.091 | lapatinib -0.016 | pictilisib -0.077

NAMPT (UniProt C9JF35)
inactive: saracatinib 0.105 | sotrastaurin 0.059 | alvocidib 0.011 | Tubastatin A -0.07 | [1] 0.122 | rucaparib -0.277 | [2] -0.081 | encorafenib 0.025 | [4] -0.063 | filanesib 0.048 | zotarolimus -0.062 | alisertib -0.041 | [5] 0.029 | gefitinib 0.039 | [6] 0.015 | lapatinib -0.047

Four successive records from above, quoted:
NACC1 (UniProt Q96RE7)
inactive: saracatinib -0.055 | sotrastaurin -0.141 | Tubastatin A 0.034 | [1] -0.063 | defactinib -0.312 | rucaparib 0.01 | [2] -0.006 | encorafenib 0.13 | [3] -0.021 | [4] 0.009 | filanesib -0.116 | zotarolimus 0.103 | idasanutlin 0.02 | alisertib 0.016 | [5] -0.198 | gefitinib 0.021 | [6] 0.024 | lapatinib -0.031 | pictilisib -0.034

NCK2 (UniProt O43639)
inactive: saracatinib -0.056 | sotrastaurin 0 | alvocidib -0.043 | Tubastatin A 0.191 | defactinib -0.227 | rucaparib 0.125 | [2] 0.017 | encorafenib 0.055 | [3] -0.32 | [4] -0.062 | filanesib -0.089 | zotarolimus 0.052 | idasanutlin 0.04 | [5] 0.267 | gefitinib 0.084 | lapatinib -0.257 | pictilisib -0.046

NAT10 (UniProt Q9H0A0)
inactive: saracatinib -0.043 | sotrastaurin -0.031 | alvocidib 0.318 | Tubastatin A 0.094 | [1] -0.166 | defactinib 0.382 | rucaparib 0.346 | [2] 0.182 | encorafenib 0.14 | [3] -0.02 | [4] -0.049 | filanesib 0.503 | zotarolimus 0.091 | idasanutlin 0.25 | alisertib -0.098 | [5] 0.017 | gefitinib 0.015 | [6] -0.279 | lapatinib 0.145 | pictilisib -0.132

NDUFB10 (UniProt O96000)
inactive: saracatinib -0.027 | sotrastaurin 0.008 | Tubastatin A -0.022 | [1] -0.012 | defactinib -0.016 | rucaparib 0.012 | [2] -0.004 | encorafenib -0.005 | [3] -0.029 | [4] 0.044 | filanesib -0.025 | zotarolimus 0.006 | idasanutlin -0.035 | alisertib -0.021 | [5] -0.047 | gefitinib 0 | [6] 0.05 | lapatinib -0.035 | pictilisib 0.082
